Test results taken from PubChem BioAssay AID248 (DTP/NCI, 2004).
The list does not hold the whole screen: it gathers tests that were run many times, whatever their T/C, doses with no T/C, and many T/C values between a quarter and a half above the control. Other doses and runs of a compound stand elsewhere. T/C gives the treated animals as a percentage of the vehicle group. Some entries give survivors of the animals treated and no T/C: the source files T/C as zero there, which appears to mark a toxic dose or a test without result, not a measured value. Some survivor counts are full or nearly so, which does not show that the dose was tolerated: the source hardly ever lists a survival T/C far under the control, and the zero likely stands for such cases as well. Counts of survivors are from the toxicity check (mostly the fifth day) where no day follows; animals may have died later. Schedules are NCI's codes, read here as Q, the interval in days (D) or hours (H), X, the number of doses. Some schedule codes hold Z or #, which are not explained here. Where survival is the endpoint, this PubChem deposit counts one and a half times the control or more as active, and values a quarter to a half above the control carry no call in these data; other NCI protocols may use other cut-offs. Brackets with × count equal records among those shown. Some entries hold several experiments; the values are given in rising order.

Test system: L1210 leukemia ip in BDF1 mice, survival T/C
Assay: NCI In Vivo Anticancer Drug Screen. Data for tumor model L1210 Leukemia (intraperitoneal) in B6D2F1 (BDF1) mice
Details: T/C endpoint: mean survival time, higher T/C = longer survival
[1] = dose: 50.0 mg/kg/injection, schedule: Q01DX009 (ip), vehicle: saline
[2] = dose: 100.0 mg/kg/injection, schedule: Q04DX003 (ip), vehicle: saline
[3] = dose: 200.0 mg/kg/injection, schedule: Q01DX001 (ip), vehicle: saline
[4] = dose: 400.0 mg/kg/injection, schedule: Q01DX001 (ip), vehicle: saline
[5] = dose: 15.0 mg/kg/injection, schedule: Q01DX Z (ip), vehicle: saline

In the case of C=CC=O, the T/C (dose: 3.2 mg/kg/injection, schedule: Q01DX001 (ip), vehicle: saline, evaluated on day 5) is reported as 103 and 105 % of control, the T/C (dose: 3.2 mg/kg/injection, schedule: Q01DX001 (ip), vehicle: saline, evaluated on day 45) is reported as 103 and 105 % of control and the T/C (dose: 4.9 mg/kg/injection, schedule: Q01DX001 (ip), vehicle: saline, evaluated on day 5) is reported as 99 and 100 % of control. The T/C (dose: 4.9 mg/kg/injection, schedule: Q01DX001 (ip), vehicle: saline, evaluated on day 45) was 100 % of control (2×), the T/C (dose: 7.4 mg/kg/injection, schedule: Q01DX001 (ip), vehicle: saline, evaluated on day 5) was 99 and 102 % of control and the T/C (dose: 7.4 mg/kg/injection, schedule: Q01DX001 (ip), vehicle: saline, evaluated on day 45) was 100 and 102 % of control. The T/C (dose: 11.0 mg/kg/injection, schedule: Q01DX001 (ip), vehicle: saline, evaluated on day 5) was 101 and 105 % of control, the T/C (dose: 11.0 mg/kg/injection, schedule: Q01DX001 (ip), vehicle: saline, evaluated on day 45) was 101 and 105 % of control and the survivor count (dose: 12.5 mg/kg/injection, schedule: Q01DX009 (ip), vehicle: saline) was 0 of 6. The survivor count (dose: 15.0 mg/kg/injection, schedule: Q04DX003 (ip), vehicle: saline) was 6 of 6, the survivor count (dose: 25.0 mg/kg/injection, schedule: Q01DX009 (ip), vehicle: Klucel (hydroxypropylcellulose) (HPC)) was 0 of 6 and the survivor count (dose: 25.0 mg/kg/injection, schedule: Q01DX009 (ip), vehicle: saline) was 0 of 6. For the same molecule, the survivor count (dose: 25.0 mg/kg/injection, schedule: Q04DX003 (ip), vehicle: saline) was 0 of 6, the survivor count (dose: 30.0 mg/kg/injection, schedule: Q04DX003 (ip), vehicle: saline) was 6 of 6 and the survivor count (dose: 50.0 mg/kg/injection, schedule: Q01DX009 (ip), vehicle: Klucel (hydroxypropylcellulose) (HPC)) was 0 of 6. The survivor count [1] was 0 of 6, the survivor count (dose: 50.0 mg/kg/injection, schedule: Q04DX003 (ip), vehicle: Klucel (hydroxypropylcellulose) (HPC)) was 2 of 6 and the survivor count (dose: 50.0 mg/kg/injection, schedule: Q04DX003 (ip), vehicle: saline) was 0 of 6. For the same molecule, the survivor count (dose: 100.0 mg/kg/injection, schedule: Q01DX009 (ip), vehicle: Klucel (hydroxypropylcellulose) (HPC)) was 0 of 6, the survivor count (dose: 100.0 mg/kg/injection, schedule: Q01DX009 (ip), vehicle: saline) was 0 of 6 and the survivor count [2] was 0 of 6. The survivor count (dose: 200.0 mg/kg/injection, schedule: Q01DX009 (ip), vehicle: saline) was 0 of 6, the survivor count (dose: 200.0 mg/kg/injection, schedule: Q04DX003 (ip), vehicle: saline) was 0 of 6 and the survivor count (dose: 400.0 mg/kg/injection, schedule: Q04DX003 (ip), vehicle: saline) was 0 of 6.
For CC(C)=NN=C(C)C, the survivor count [1] was 6 of 6, the survivor count [2] was 3 of 6 and the survivor count [3] was 0 of 6. For the same molecule, the survivor count [4] was 0 of 6.
With NC(Cc1cccs1)C(=O)O (stereo not given) the survivor count (dose: 125.0 mg/kg/injection, schedule: Q01DX Z (ip), vehicle: carboxymethylcellulose (CMC)) was 9 of 10 and the survivor count (dose: 500.0 mg/kg/injection, schedule: Q01DX Z (ip), vehicle: carboxymethylcellulose (CMC)) was 10 of 10.
CC(C)=Cc1ccccc1 was tested, and the survivor count (dose: 400.0 mg/kg/injection, schedule: Q01DX009 (ip), vehicle: saline with Tween-80) was 4 of 6.
In the case of CC(=O)O[C@H]1CCCC[C@@H]1NC(=O)N(CCCl)N=O, the survivor count (dose: 90.0 mg/kg/injection, schedule: Q01DX001 (ip), vehicle: carboxymethylcellulose (CMC)) is reported as 10 of 10 and the survivor count (dose: 135.0 mg/kg/injection, schedule: Q01DX001 (ip), vehicle: carboxymethylcellulose (CMC)) is reported as 9 of 10.
In the case of O=C(NCCc1ccccc1)c1ccc2ccccc2n1, the survivor count (dose: 12.5 mg/kg/injection, schedule: Q01DX009 (ip), vehicle: DMSO) is reported as 6 of 6, the survivor count (dose: 50.0 mg/kg/injection, schedule: Q01DX009 (ip), vehicle: DMSO) is reported as 2 of 6 and the survivor count (dose: 100.0 mg/kg/injection, schedule: Q01DX009 (ip), vehicle: DMSO) is reported as 5 of 6. For the same molecule, the survivor count (dose: 200.0 mg/kg/injection, schedule: Q01DX009 (ip), vehicle: DMSO) was 2 of 6 and the survivor count (dose: 400.0 mg/kg/injection, schedule: Q01DX009 (ip), vehicle: DMSO) was 0 of 6.
In the case of CCC1CN1CC1CO1 (stereo not given), the T/C [5] is reported as 111, 121, 126, 139 % of control, the T/C (dose: 30.0 mg/kg/injection, schedule: Q01DX Z (ip), vehicle: saline) is reported as 126 % of control and the T/C (dose: 33.0 mg/kg/injection, schedule: Q01DX Z (ip), vehicle: saline) is reported as 125 % of control. For the same molecule, the survivor count (dose: 113.0 mg/kg/injection, schedule: Q01DX Z (ip), vehicle: saline) was 5 of 6.
For CCCCCCC[n+]1cccc(C#N)c1, the survivor count (dose: 300.0 mg/kg/injection, schedule: Q01DX001 (ip), vehicle: saline) was 2 of 6.
CC1(C)CCCC(C)(C)N1 was tested, and the survivor count (dose: 100.0 mg/kg/injection, schedule: Q01DX001 (ip), vehicle: saline) was 0 of 4, the survivor count [3] was 0 of 4 and the survivor count [4] was 0 of 4.
With Nc1ncnc2c1c(-c1ncn[nH]1)cn2C1OC(CO)C(O)C1O (stereo not given) the T/C (dose: 0.19 mg/kg/injection, schedule: Q01DX005 (ip), vehicle: saline) was 131 % of control, the T/C (dose: 0.39 mg/kg/injection, schedule: Q01DX009 (ip), vehicle: saline) was 128 % of control and the survivor count (dose: 0.78 mg/kg/injection, schedule: Q01DX005 (ip), vehicle: saline) was 6 of 6. The survivor count (dose: 1.56 mg/kg/injection, schedule: Q01DX005 (ip), vehicle: saline) was 0 of 6, the survivor count (dose: 3.12 mg/kg/injection, schedule: Q01DX005 (ip), vehicle: saline) was 0 of 6 and the survivor count (dose: 6.25 mg/kg/injection, schedule: Q01DX005 (ip), vehicle: saline) was 0 of 6. For the same molecule, the survivor count (dose: 12.5 mg/kg/injection, schedule: Q01DX005 (ip), vehicle: saline) was 1 of 6, the survivor count (dose: 25.0 mg/kg/injection, schedule: Q01DX005 (ip), vehicle: saline) was 0 of 6 and the survivor count (dose: 50.0 mg/kg/injection, schedule: Q01DX005 (ip), vehicle: saline) was 0 of 6.
With Cc1ccc(C)c(NC(=O)Nc2ccc(Nc3ccccc3)cc2)c1 the survivor count (dose: 200.0 mg/kg/injection, schedule: Q01DX009 (ip), vehicle: Klucel (hydroxypropylcellulose) (HPC)) was 6 of 6.
Nc1ccc(CCCCc2c(N)nc(N)nc2N)cc1 was tested, and the survivor count (dose: 400.0 mg/kg/injection, schedule: Q04DX003 (ip), vehicle: Klucel (hydroxypropylcellulose) (HPC)) was 0 of 6.
Cc1c2cnccc2c(C)c2c1c1ccccc1n2CCNCCO was tested, and the survivor count (dose: 400.0 mg/kg/injection, schedule: Q04DX003 (ip), vehicle: saline sonified) was 6 of 6.
In the case of Nc1ccc2cn[nH]c2c1, the survivor count (dose: 400.0 mg/kg/injection, schedule: Q01DX009 (ip), vehicle: water) is reported as 4 of 6.
With N#CC(O)c1ccccc1 (stereo not given) the survivor count [5] was 6 of 6, the survivor count (dose: 20.0 mg/kg/injection, schedule: Q01DX001 (ip), vehicle: carboxymethylcellulose (CMC)) was 2 of 4 and the survivor count (dose: 20.0 mg/kg/injection, schedule: Q01DX009 (ip), vehicle: acetone) was 0 of 6. For the same molecule, the survivor count (dose: 20.0 mg/kg/injection, schedule: Q01DX Z (ip), vehicle: saline) was 0 of 6, the survivor count (dose: 40.0 mg/kg/injection, schedule: Q01DX001 (ip), vehicle: carboxymethylcellulose (CMC)) was 0 of 4 and the survivor count (dose: 80.0 mg/kg/injection, schedule: Q01DX001 (ip), vehicle: carboxymethylcellulose (CMC)) was 0 of 4. For the same molecule, the survivor count (dose: 100.0 mg/kg/injection, schedule: Q01DX001 (ip), vehicle: carboxymethylcellulose (CMC)) was 0 of 4, the survivor count (dose: 200.0 mg/kg/injection, schedule: Q01DX001 (ip), vehicle: carboxymethylcellulose (CMC)) was 0 of 4 and the survivor count (dose: 400.0 mg/kg/injection, schedule: Q01DX001 (ip), vehicle: carboxymethylcellulose (CMC)) was 0 of 4.
In the case of CCOC(=O)c1nc(N)[nH]c(=O)c1CCCCc1ccccc1, the survivor count (dose: 75.0 mg/kg/injection, schedule: Q01DX001 (ip), vehicle: saline with Tween-80) is reported as 6 of 6.
For COc1ccc(CNC(=O)NCCCl)cc1OC, the survivor count (dose: 400.0 mg/kg/injection, schedule: Q01DX009 (ip), vehicle: Klucel (hydroxypropylcellulose) (HPC)) was 0 of 6.
